Assay results reported in PubChem BioAssay AID248 (DTP/NCI, 2004).
The list shows only some results of the screen, not a fair sample: it is rich in T/C values a quarter to a half above the control, in often repeated tests (any T/C) and in doses without a T/C. Other doses and runs of a compound stand elsewhere. T/C gives the treated animals as a percentage of the vehicle group. Some entries give survivors of the animals treated and no T/C: the source files T/C as zero there, which appears to mark a toxic dose or a test without result, not a measured value. Some survivor counts are full or nearly so, which does not show that the dose was tolerated: the source hardly ever lists a survival T/C far under the control, and the zero likely stands for such cases as well. Survivors were counted at the toxicity check, usually on the fifth day, unless a day is given; later deaths do not show. Schedules are NCI's codes, read here as Q, the interval in days (D) or hours (H), X, the number of doses. Some doses were run more than once; the values are given in rising order. Some schedules carry Z or #; the key to these is not given. For survival time, this PubChem deposit counts one and a half times the control or more as active, and values a quarter to a half above the control carry no call in these data; other NCI protocols may use other cut-offs. Some T/C values are followed by the survivors on the day toxicity was checked, most often the fifth; without a count, all were alive then.

Test system: L1210 leukemia ip in BDF1 mice, survival T/C
Assay: NCI In Vivo Anticancer Drug Screen. Data for tumor model L1210 Leukemia (intraperitoneal) in B6D2F1 (BDF1) mice
Details: T/C endpoint: mean survival time, higher T/C = longer survival
[1] = dose: 200.0 mg/kg/injection, schedule: Q04DX003 (ip), vehicle: saline
[2] = dose: 400.0 mg/kg/injection, schedule: Q04DX003 (ip), vehicle: saline
[3] = dose: 100.0 mg/kg/injection, schedule: Q01DX001 (ip), vehicle: saline
[4] = dose: 200.0 mg/kg/injection, schedule: Q01DX001 (ip), vehicle: saline
[5] = dose: 400.0 mg/kg/injection, schedule: Q01DX001 (ip), vehicle: saline
[6] = dose: 400.0 mg/kg/injection, schedule: Q01DX001 (ip), vehicle: carboxymethylcellulose (CMC)
[7] = dose: 100.0 mg/kg/injection, schedule: Q04DX003 (ip), vehicle: saline

O=C(CCC(=O)Nc1ccc(C2=NCCN2)cc1)Nc1ccc(C2=NCCN2)cc1
T/C (dose: 8.0 mg/kg/injection, schedule: Q01DX Z (ip), vehicle: carboxymethylcellulose (CMC)): 130 and 148 % of control
T/C (dose: 32.0 mg/kg/injection, schedule: Q01DX Z (ip), vehicle: carboxymethylcellulose (CMC)): 139 % of control
T/C (dose: 84.0 mg/kg/injection, schedule: Q01DX001 (ip), vehicle: carboxymethylcellulose (CMC)): 126 % of control
T/C (dose: 84.0 mg/kg/injection, schedule: Q01DX001 (ip), vehicle: other): 131 % of control
T/C (dose: 128.0 mg/kg/injection, schedule: Q01DX001 (ip), vehicle: other): 134 % of control
survivor count (dose: 192.0 mg/kg/injection, schedule: Q01DX001 (ip), vehicle: carboxymethylcellulose (CMC)): 0 of 10
survivor count (dose: 192.0 mg/kg/injection, schedule: Q01DX001 (ip), vehicle: other): 0 of 10

CCCCS(=O)(=O)N(CC)CC
survivor count (dose: 400.0 mg/kg/injection, schedule: Q01DX009 (ip), vehicle: carboxymethylcellulose (CMC)): 5 of 6

CC1C2CCC(C2)C1N (stereo not given)
survivor count [1]: 3 of 6
survivor count [2]: 0 of 6 and 3 of 6

CCCCC1C(=O)N(c2ccccc2)N(c2ccccc2)C1=O
survivor count (dose: 200.0 mg/kg/injection, schedule: Q01DX Z (ip), vehicle: water): 3 of 6

CC(C)Cn1c[n+](Cc2ccc([N+](=O)[O-])cc2)c2c1C(=O)c1ccccc1C2=O
survivor count (dose: 100.0 mg/kg/injection, schedule: Q04DX003 (ip), vehicle: saline with Tween-80): 0 of 6
survivor count (dose: 200.0 mg/kg/injection, schedule: Q04DX003 (ip), vehicle: saline with Tween-80): 0 of 6
survivor count (dose: 400.0 mg/kg/injection, schedule: Q04DX003 (ip), vehicle: saline with Tween-80): 0 of 6

C1OC1CN1CCC(C2CCN(CC3CO3)CC2)CC1 (stereo not given)
T/C (dose: 0.92 mg/kg/injection, schedule: Q01DX009 (ip), vehicle: saline): 135 % of control
T/C (dose: 1.4 mg/kg/injection, schedule: Q01DX009 (ip), vehicle: saline): 138 % of control
T/C (dose: 3.3 mg/kg/injection, schedule: Q01DX009 (ip), vehicle: saline): 135 % of control
T/C (dose: 4.9 mg/kg/injection, schedule: Q01DX009 (ip), vehicle: saline): 138 % of control
T/C (dose: 7.0 mg/kg/injection, schedule: Q01DX009 (ip), vehicle: saline): 146 % of control
T/C (dose: 10.0 mg/kg/injection, schedule: Q01DX001 (ip), vehicle: saline): 145 % of control
T/C (dose: 12.5 mg/kg/injection, schedule: Q01DX001 (ip), vehicle: saline): 139 % of control
T/C (dose: 15.0 mg/kg/injection, schedule: Q01DX001 (ip), vehicle: saline): 141 % of control
T/C (dose: 25.0 mg/kg/injection, schedule: Q01DX001 (ip), vehicle: saline): 136 % of control
T/C (dose: 30.0 mg/kg/injection, schedule: Q01DX001 (ip), vehicle: saline): 141 % of control
survivor count (dose: 60.0 mg/kg/injection, schedule: Q01DX009 (ip), vehicle: saline): 6 of 6
survivor count [3]: 2 of 6
survivor count (dose: 120.0 mg/kg/injection, schedule: Q01DX001 (ip), vehicle: saline): 4 of 6
survivor count [4]: 0 of 6
survivor count [5]: 0 of 6

CCCCCCCCCCCCNC=O
survivor count (dose: 50.0 mg/kg/injection, schedule: Q01DX009 (ip), vehicle: saline): 3 of 3
survivor count (dose: 200.0 mg/kg/injection, schedule: Q01DX009 (ip), vehicle: saline): 1 of 3

C[N+](C)(C)Cc1c(CC(O)(c2ccccc2)c2ccccc2)ccc2ccccc12
survivor count (dose: 200.0 mg/kg/injection, schedule: Q01DX001 (ip), vehicle: carboxymethylcellulose (CMC)): 2 of 4
survivor count [6]: 2 of 4

OC1CCCC2CCC[N-]C12.OC1CCCC2CCC[N-]C12.[O]=[V][OH] (stereo not given)
survivor count (dose: 80.0 mg/kg/injection, schedule: Q01DX015 (ip), vehicle: carboxymethylcellulose (CMC)): 5 of 6
survivor count [3]: 2 of 6
survivor count (dose: 120.0 mg/kg/injection, schedule: Q01DX015 (ip), vehicle: carboxymethylcellulose (CMC)): 0 of 6
survivor count [4]: 1 of 6
survivor count [5]: 0 of 6

C[N+](C)(C)c1ccc(/C=N\O)cc1
survivor count (dose: 25.0 mg/kg/injection, schedule: Q04DX003 (ip), vehicle: saline): 0 of 6
survivor count [7]: 0 of 6
survivor count [1]: 0 of 6
survivor count [2]: 0 of 6

Cc1ccc(S(=O)(=O)NCCN(C2CCCCC2)S(=O)(=O)c2ccc(C)cc2)cc1
survivor count (dose: 60.0 mg/kg/injection, schedule: Q01DX001 (ip), vehicle: carboxymethylcellulose (CMC)): 0 of 6
survivor count (dose: 75.0 mg/kg/injection, schedule: Q01DX001 (ip), vehicle: carboxymethylcellulose (CMC)): 1 of 6
survivor count (dose: 150.0 mg/kg/injection, schedule: Q01DX001 (ip), vehicle: carboxymethylcellulose (CMC)): 1 of 6
survivor count (dose: 300.0 mg/kg/injection, schedule: Q01DX001 (ip), vehicle: carboxymethylcellulose (CMC)): 0 of 6

O=[N+]([O-])c1ccc2c(c1)N(CCCN1CCN(CCO)CC1)c1ccccc1S2
T/C (dose: 50.0 mg/kg/injection, schedule: Q04DX003 (ip), vehicle: saline): 138 % of control [3 of 4 alive]
survivor count [7]: 0 of 4
survivor count [1]: 1 of 4

CCCCCCCCCC[n+]1cccc(C#N)c1
survivor count (dose: 75.0 mg/kg/injection, schedule: Q01DX001 (ip), vehicle: saline): 3 of 6
survivor count (dose: 150.0 mg/kg/injection, schedule: Q01DX001 (ip), vehicle: saline): 1 of 6
survivor count (dose: 300.0 mg/kg/injection, schedule: Q01DX001 (ip), vehicle: saline): 0 of 6

[Cl][Pt+2][Cl].[NH-]C1CCC1.[NH-]C1CCC1
T/C (dose: 4.0 mg/kg/injection, schedule: Q01DX009 (ip), vehicle: saline with Tween-80): 133 % of control
T/C (dose: 8.0 mg/kg/injection, schedule: Q01DX001 (ip), vehicle: saline with Tween-80): 133 % of control
T/C (dose: 12.5 mg/kg/injection, schedule: Q04DX003 (ip), vehicle: saline with Tween-80): 125 % of control
T/C (dose: 16.0 mg/kg/injection, schedule: Q01DX001 (ip), vehicle: saline with Tween-80): 130 % of control
T/C (dose: 20.0 mg/kg/injection, schedule: Q04DX003 (ip), vehicle: saline): 128 % of control
T/C (dose: 25.0 mg/kg/injection, schedule: Q04DX003 (ip), vehicle: saline with Tween-80): 140 % of control
T/C (dose: 50.0 mg/kg/injection, schedule: Q04DX003 (ip), vehicle: Klucel (hydroxypropylcellulose) (HPC)): 132 % of control
survivor count (dose: 128.0 mg/kg/injection, schedule: Q01DX001 (ip), vehicle: saline with Tween-80): 2 of 6

Oc1ccc(Cl)cc1/C=N\NC(=S)Nc1ccc2cn[nH]c2c1
survivor count [6]: 0 of 4

CCCCOCCC1CCNCC1
survivor count [7]: 1 of 6
survivor count [1]: 0 of 6
survivor count [2]: 0 of 6

CN(C)C=NC1CCC(CC2CCCCC2)CC1 (stereo not given)
survivor count (dose: 400.0 mg/kg/injection, schedule: Q01DX001 (ip), vehicle: Klucel (hydroxypropylcellulose) (HPC)): 2 of 6

O=C(CCl)COP(=O)(O)O
survivor count (dose: 100.0 mg/kg/injection, schedule: Q01DX009 (ip), vehicle: other): 0 of 6
survivor count (dose: 200.0 mg/kg/injection, schedule: Q01DX001 (ip), vehicle: other): 1 of 6
survivor count (dose: 200.0 mg/kg/injection, schedule: Q04DX003 (ip), vehicle: other): 2 of 6

C[N+](C)(C)CCOc1ccc(Cl)cc1
survivor count (dose: 100.0 mg/kg/injection, schedule: Q04DX003 (ip), vehicle: Klucel (hydroxypropylcellulose) (HPC)): 3 of 6
survivor count (dose: 200.0 mg/kg/injection, schedule: Q04DX003 (ip), vehicle: Klucel (hydroxypropylcellulose) (HPC)): 0 of 6
survivor count (dose: 400.0 mg/kg/injection, schedule: Q04DX003 (ip), vehicle: Klucel (hydroxypropylcellulose) (HPC)): 0 of 6

COc1ccc(C)cc1NC(=O)Nc1cc(Cl)ccc1C
survivor count (dose: 400.0 mg/kg/injection, schedule: Q01DX001 (ip), vehicle: saline with Tween-80): 2 of 6

O=C(O)CCS
survivor count [3]: 0 of 4
survivor count [4]: 0 of 4
survivor count [5]: 0 of 4
